Laboratory results taken from paper PMC13386968.

By UniProt entry, the sequences of proteins in these tests, tags left out. Where a name states a change or a piece, a line headed by the entry shows the natural chain unless it says otherwise.
UniProt Q01628: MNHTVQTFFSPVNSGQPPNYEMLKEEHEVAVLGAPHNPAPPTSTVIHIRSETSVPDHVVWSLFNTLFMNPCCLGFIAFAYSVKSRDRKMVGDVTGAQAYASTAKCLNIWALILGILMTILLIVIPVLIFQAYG
UniProt P13164: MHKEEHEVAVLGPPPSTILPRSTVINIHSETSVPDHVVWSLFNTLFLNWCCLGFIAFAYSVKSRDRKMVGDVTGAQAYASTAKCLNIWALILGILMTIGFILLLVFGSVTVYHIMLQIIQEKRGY

What was measured:
FLAG-IFITM3 G95L (human) = FLAG-IFITM3 G95L (human) (UniProt Q01628); assay: affinity purification with mass spectrometry; anti-FLAG (M2) immunoprecipitation from whole cell lysates (1% Triton X-100, 150 mM NaCl) of HEK293T stably expressing FLAG-IFITM3 WT, G95L or empty vector; TMT-labelled proteomics; abundance ratio WT/G95L
FLAG-IFITM3 WT (human) = FLAG-IFITM3 WT (human) (UniProt Q01628); assay: as above

For “endogenous IFITM1 (from UniProt P13164 1-125)”, the binding (FLAG-IFITM3 G95L (human)) was “binds” and the binding (FLAG-IFITM3 WT (human)) was “binds”.

No constants are given. Whether binding was seen depends on the method and setting. In cells and extracts the contact can be indirect. A yes stands for co-enrichment or nearness to the bait. Other partners may have been found.
